Patent publication US9260436B2 (Sumitomo Chemical Company, Limited, priority 2012, dated 2016)
Some of these results come from one statement about several compounds together.

Assays:
Type in all cases: in vivo
[1] = tested on: Nilaparvata lugens; test: Test Example 3: spray on rice seedling, Nilaparvata lugens larvae released; conditions: 500 ppm, 10 ml sprayed on rice seedling, third-fourth instar larvae, after 6 days
[2] = tested on: Plutella xylostella; test: Test Example 6: sprayed cabbage foliage, Plutella xylostella larvae; conditions: 500 ppm, 20 mL/cup sprayed on cabbage, second instar larvae, 25° C. for 5 days
[3] = tested on: Adoxophyes orana fasciata; test: Test Example 7: sprayed apple tree, Adoxophyes orana fasciata larvae; conditions: 500 ppm, 20 mL/cup sprayed on apple tree, first-instar, after 7 days
[4] = tested on: Culex pipiens pallens; test: Test Example 10: Culex pipiens pallens last-instar larvae in treated water; conditions: active ingredient concentration 3.5 ppm in water, one day later
[5] = tested on: Aphis gossypii; test: Test Example 1: foliar spray on cucumber seedling inoculated with Aphis gossypii; conditions: 500 ppm active ingredient, 20 ml sprayed on cucumber seedling, six days after spraying
[6] = tested on: Musca domestica; test: Test Example 8: filter paper with sucrose bait, Musca domestica female imagoes; conditions: 500 ppm, 0.7 ml on filter paper, after 24 hours
[7] = tested on: Nilaparvata lugens; test: Test Example 4: foot drench of rice seedling, Nilaparvata lugens larvae released; conditions: 500 ppm, 5 ml drenched at foot of rice seedling, 7 days then larvae released, further 6 days

Row | SMILES | controlling value [1] [%] | death rate [2] [%] | death rate [3] [%] | controlling value [5] [%] | other results
1 | CCSc1ccccc1-c1cnc2cc(C(F)(F)F)ccc2n1 [Compound of Present Invention 1, 2-(2-ethylsulfanylphenyl)-6-trifluoromethylquinoxaline] | ≥ 90 | ≥ 80 | ≥ 90 |  | death rate [4]: ≥ 91%
2 | CCSc1ccccc1-c1nc2ccc(C(F)(F)F)cc2nc1C [Compound of Present Invention 2, 2-(2-ethylsulfanylphenyl)-3-methyl-6-trifluoromethylquinoxaline] |  | ≥ 80 | ≥ 90 |  | 
3 | CCS(=O)(=O)c1ccccc1-c1ncc2ccc(C(F)(F)F)cc2n1 [Compound of Present Invention 12, 2-(2-ethylsulfonylphenyl)-7-trifluoromethylquinazoline] |  | ≥ 80 |  |  | 
4 | CCNc1nc(-c2ccc(Cl)cc2SCC)nc2cc(C(F)(F)F)ccc12 [Compound of Present Invention 15, 2-(4-chloro-2-ethylsulfanylphenyl)-4-ethylamino-7-trifluoro methylquinazoline] |  |  | ≥ 90 |  | 
5 | CCSc1ccccc1-c1cnc2c(c1)nc(C(F)(F)F)n2C [Compound of Present Invention 24, 6-(2-ethylsulfanylphenyl)-3-methyl-2-trifluoromethyl-3H-imidazo[4,5-b]pyridine] | ≥ 90 |  |  | ≥ 90 | 
6 | CCS(=O)(=O)c1ccccc1-c1cnc2c(c1)nc(C(F)(F)F)n2C [Compound of Present Invention 25, 6-(2-ethylsulfonylphenyl)-3-methyl-2-trifluoromethyl-3H-imidazo[4,5-b]pyridine] |  | ≥ 80 | ≥ 90 | ≥ 90 | death rate [6]: ≥ 100%
7 | CCS(=O)(=O)c1ccccc1-c1ccc2nc(C(F)(F)F)cn2c1 [Compound of Present Invention 27, 6-(2-ethylsulfonylphenyl)-2-trifluoromethylimidazo[1,2-a]pyridine] |  |  | ≥ 90 |  | 
8 | CCSc1ccccc1-c1ccc2nc(C(F)(F)F)cn2c1C [Compound of Present Invention 28, 6-(2-ethylsulfanylphenyl)-5-methyl-2-trifluoromethylimidazo [1,2-a]pyridine] | ≥ 90 |  |  |  | controlling value [7]: ≥ 90%
9 | CCSc1ccccc1-c1ccc2nc(C(F)(F)C(F)(F)F)cn2c1C [Compound of Present Invention 29, 6-(2-ethylsulfanylphenyl)-5-methyl-2-pentafluoroethylimidazo[1,2-a]pyridine] | ≥ 90 |  |  |  | 
10 | CCSc1ccccc1-c1ccc2nc(C(F)(F)F)cn2n1 [Compound of Present Invention 33, 6-(2-ethylsulfanylphenyl)-2-trifluoromethylimidazo[1,2-b]pyridine] | ≥ 90 | ≥ 80 | ≥ 90 | ≥ 90 | death rate [4]: ≥ 91%
11 | CCS(=O)(=O)c1ccccc1-c1ccc2nc(C(F)(F)F)cn2n1 [Compound of Present Invention 34, 6-(2-ethylsulfonylphenyl)-2-trifluoromethylimidazo[1,2-b]pyridine] |  | ≥ 80 | ≥ 90 |  | controlling value [7]: ≥ 90%
12 | CCSc1ccccc1-c1cnc2nc(C(F)(F)F)cn2c1 [Compound of Present Invention 35, 6-(2-ethylsulfanylphenyl)-2-trifluoromethylimidazo[1,2-a]pyrimidine] |  |  |  | ≥ 90 | death rate [6]: ≥ 100%
